Values of other authors in patent publication US5053398A, “Sulfated homopolysaccharides as anti-AIDS virus agents” (Taito Co., Ltd., priority 1988, dated 1991).
For at least one compound, name, drawing or mass did not settle the structure. Some compounds share one wording; it may come from a single statement.

System: AIDS virus
Conditions: background; cited from earlier work

| SMILES | anti-AIDS virus activities |
| --- | --- |
| Nc1ncnc2c1ncn2[C@H]1CC[C@@H](CO)O1 [dideoxyadenosine] | known to exibit anti-AIDS effects |
| Nc1ccn([C@H]2CC[C@@H](CO)O2)c(=O)n1 [dideoxycytidine] | known to exibit anti-AIDS effects |
